Measured values as given in article PMC12594206.
No constants are given. Whether binding was seen depends on the method and setting. In cells and extracts the contact can be indirect. Some binding calls cover weakened binding; strength is not graded here.

Molecular target: T1, Epithelial V-like antigen 1 homolog C (EVA1C) (human (endogenous in SH-SY5Y)) (UniProt P58658)
T1 sequence: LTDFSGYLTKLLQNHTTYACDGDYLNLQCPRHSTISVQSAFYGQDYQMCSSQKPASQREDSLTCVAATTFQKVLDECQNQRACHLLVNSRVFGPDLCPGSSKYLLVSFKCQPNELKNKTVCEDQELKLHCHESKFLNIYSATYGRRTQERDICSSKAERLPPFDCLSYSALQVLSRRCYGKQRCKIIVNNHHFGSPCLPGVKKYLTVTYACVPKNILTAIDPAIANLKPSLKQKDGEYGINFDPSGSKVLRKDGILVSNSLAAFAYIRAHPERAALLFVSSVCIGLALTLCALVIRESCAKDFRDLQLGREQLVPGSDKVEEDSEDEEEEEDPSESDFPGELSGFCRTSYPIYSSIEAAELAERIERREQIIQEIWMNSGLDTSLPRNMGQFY
Experiment: co-IP; lysate (0.5 mg) of SH-SY5Y cells overexpressing 2N3R Tau, with or without NR (0.5 mM); nuclease-treated; 2 ug anti-EVA1C or control IgG at 4 C overnight, Protein A beads 4 h at 4 C; Western blot

B1: BAG1 (BCL2-associated athanogene 1) (protein, UniProt Q99933 1-345)
chain: MAQRGGARRPRGDRERLGSRLRALRPGREPRQSEPPAQRGPPPSGRPPARSTASGHDRPTRGAAAGARRPRMKKKTRRRSTRSEELTRSEELTLSEEATWSEEATQSEEATQGEEMNRSQEVTRDEESTRSEEVTREEMAAAGLTVTVTHSNEKHDLHVTSQQGSSEPVVQDLAQVVEEVIGVPQSFQKLIFKGKSLKEMETPLSALGIQDGCRVMLIGKKNSPQEEVELKKLKHLEKSVEKIADQLEELNKELTGIQQGFLPKDLQAEALCKLDRRVKATIEQFMKILEEIDTLILPENFKDSRLKRKGLVKKVQAFLAECDTVEQNICQETERLQSTNFALAE
- binding: binds
